Drawing on article PMC11157268, this text covers binding for one molecule.

This assay addresses T1, GST-APE2 (human) (UniProt Q9UBZ4).
T1 sequence: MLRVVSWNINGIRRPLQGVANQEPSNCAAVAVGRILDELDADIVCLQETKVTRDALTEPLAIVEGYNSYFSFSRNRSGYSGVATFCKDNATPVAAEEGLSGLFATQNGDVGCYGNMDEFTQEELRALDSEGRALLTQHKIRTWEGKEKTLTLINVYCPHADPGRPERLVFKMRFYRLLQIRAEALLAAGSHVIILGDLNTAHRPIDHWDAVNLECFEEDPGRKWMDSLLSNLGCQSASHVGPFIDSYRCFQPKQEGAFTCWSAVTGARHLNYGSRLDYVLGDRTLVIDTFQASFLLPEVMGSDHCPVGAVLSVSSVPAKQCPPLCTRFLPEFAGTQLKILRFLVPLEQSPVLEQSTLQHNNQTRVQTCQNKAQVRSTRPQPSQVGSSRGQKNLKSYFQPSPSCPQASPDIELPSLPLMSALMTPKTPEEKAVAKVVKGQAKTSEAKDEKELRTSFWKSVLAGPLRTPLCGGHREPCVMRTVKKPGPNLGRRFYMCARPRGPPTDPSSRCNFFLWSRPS
Put plainly: pull-down; GST-APE2 or GST as bait; endogenous MKRN3 from isolated HEK293 nuclear extracts; detected by immunoblot; performed as previously described; only the target purified. On the technique in general: Immunoblotting shows a protein as a band on a membrane.

These are yes or no findings as the source states them, for the method shown. Binding seen in cells or lysates may run through a third protein. Some results given as binding are weak or reduced against the parent protein; the word gives no strength. Where a sequence is shown, tags or fusion partners need not be part of it.

B1: Makorin RING finger protein 3 (MKRN3) (protein, UniProt Q13064 1-507)
chain: MEEPAAPSEAHEAAGAQAGAEAAREGVSGPDLPVCEPSGESAAPDSALPHAARGWAPFPVAPVPAHLRRGGLRPAPASGGGAWPSPLPSRSSGIWTKQIICRYYIHGQCKEGENCRYSHDLSGRKMATEGGVSPPGASAGGGPSTAAHIEPPTQEVAEAPPAASSLSLPVIGSAAERGFFEAERDNADRGAAGGAGVESWADAIEFVPGQPYRGRWVASAPEAPLQSSETERKQMAVGSGLRFCYYASRGVCFRGESCMYLHGDICDMCGLQTLHPMDAAQREEHMRACIEAHEKDMELSFAVQRGMDKVCGICMEVVYEKANPNDRRFGILSNCNHSFCIRCIRRWRSARQFENRIVKSCPQCRVTSELVIPSEFWVEEEEEKQKLIQQYKEAMSNKACRYFAEGRGNCPFGDTCFYKHEYPEGWGDEPPGPGGGSFSAYWHQLVEPVRMGEGNMLYKSIKKELVVLRLASLLFKRFLSLRDELPFSEDQWDLLHYELEEYFNLIL
For B1, the binding result is “binds”.
